Assay results reported in PubChem BioAssay AID2685 (National Center for Advancing Translational Sciences (NCATS), 2010).
This is one part of the list. Shown are side measurements of this screen, not its main read-out; they come without a call. The list favours compounds with an active or inconclusive main result. Words in brackets tell the shape of the fitted curve; partial curves, single points and poor fits give uncertain potencies.

Assay: qHTS Assay for Lipid Storage Modulators in Drosophila S3 Cells;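 as to cell number change: cells counted by Cell Tracker Red CMTPX staining in the red channel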
Details: BODIPY lipid droplet fluorescence, 18-24 h; for cell number change: measured here: cell count max response, cells fed with added oleic acid
Procedure, shortened: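 Drosophila S3 cells got compounds at several concentrations plus oleic acid (400 uM solution). Laser-scanning cytometry with 488 nm excitation read lipid droplets at 500-530 nm and cells at 575-640 nm. Percent activity was relative to 20 uM Triacsin C.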

[1] = measured here: lipid fluorescence (Fed channel) AC50, cells fed with added oleic acid
[2] = measured here: cell number channel AC50, cells fed with added oleic acid

Row | SMILES | cell number change | AC50 [1] | AC50 [2]
1 | O=C1c2ccccc2-c2nccnc21 | -15.6% | 103 nM [rising, full curve, poor fit] | 
2 | Clc1ccc(CSc2nnc([C@@H]3CCCN3)o2)cc1 | 94.6% | 1160 nM [rising, full curve] | 2910 nM [rising, full curve]
3 | COc1ccc(CNC(=O)c2ccc(Cn3nc(C)cc3C)o2)cc1 |  |  | 116 nM [rising, full curve, poor fit]
4 | COc1ccc(-c2[nH]c(-c3ccc(C)cc3)nc2SCC(=O)NCc2ccco2)cc1OC | -22% | 18400 nM [falling, single point] | 
5 | Cc1ccc(C)c(NC(=S)N2CCC(NC(=O)c3cccc(F)c3)CC2)c1 | -2.99% | 8200 nM [rising, partial curve] | 
6 | COc1ccc2oc(C(=O)OCC(=O)NCCc3ccccc3)c(C)c2c1 | 15.5% |  | 164 nM [falling, full curve, poor fit]
7 | O=C(CCC(=O)c1ccccc1)Nc1cccnc1 | -11.6% |  | 
8 | CC(C)Oc1ccc(C2C(C(=O)c3ccco3)=C(O)C(=O)N2Cc2cccnc2)cc1 (stereo not drawn) | -2.97% | 1160 nM [falling, full curve, poor fit] | 
9 | Cc1ccc(CNC(=O)C2CCCN(S(=O)(=O)c3c(C)noc3C)C2)cc1 (stereo not drawn) | 33.8% | 6510 nM [rising, single point] | 11600 nM [rising, partial curve]
10 | O=C(CSC1=NCCS1)N1CCOCC1 | -13.1% | 29100 nM [falling, partial curve] | 
11 | O=C(N/N=C1\CC2CC=CC12)c1ccc(O)cc1 (stereo not drawn) | -5.01% |  | 130 nM [falling, full curve]
12 | CC(=NCCc1c(C)[nH]c2ccc(C)cc12)C1=C(O)CC(c2ccccc2)CC1=O (stereo not drawn) | 7.06% |  | 
13 | COc1cc(-c2nc3cnccn3c2Nc2c(C)cccc2C)ccc1O | -20.4% | 6510 nM [rising, single point] | 
14 | CCN(CC)CCNC(=O)c1c(O)c2c([nH]c1=O)CCCC2 | -55.2% | 6510 nM [falling, partial curve] | 6510 nM [falling, full curve]
15 | Cc1ccccc1Nc1nc(N)nc(COC(=O)[C@@H](NC(=O)c2c(F)cccc2F)C(C)C)n1 |  | 651 nM [rising, full curve] | 
16 | Cc1cc(=S)n(-c2ccccc2)n1C | -24.5% | 2060 nM [falling, full curve, poor fit] | 92 nM [falling, full curve, poor fit]
17 | COc1ccc(-c2nnc(SCc3ccc(C(=O)O)cc3)n2C)cc1OC |  |  | 820 nM [falling, single point]

Taken from above.
In AC50 [2], `CCN(CC)CCNC(=O)c1c(O)c2c([nH]c1=O)CCCC2` shows 6510 nM [falling, full curve]
In cell number change, `COc1ccc2oc(C(=O)OCC(=O)NCCc3ccccc3)c(C)c2c1` shows 15.5%
